In paper PMC1238739:
Like-named read-outs stand apart in the source and are kept apart here. No constants are given. Whether binding was seen depends on the method and setting. In cells and extracts the contact can be indirect. Some binding calls cover weakened binding; strength is not graded here. For part of these data: Where a sequence is shown, tags or fusion partners need not be part of it.

Protein sequences, listed by entry. Tags and fused reporters are not part of them.
UniProt P0C0U1: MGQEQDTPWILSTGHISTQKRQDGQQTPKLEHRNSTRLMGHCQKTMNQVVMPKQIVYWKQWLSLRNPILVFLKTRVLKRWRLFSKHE
UniProt P21796: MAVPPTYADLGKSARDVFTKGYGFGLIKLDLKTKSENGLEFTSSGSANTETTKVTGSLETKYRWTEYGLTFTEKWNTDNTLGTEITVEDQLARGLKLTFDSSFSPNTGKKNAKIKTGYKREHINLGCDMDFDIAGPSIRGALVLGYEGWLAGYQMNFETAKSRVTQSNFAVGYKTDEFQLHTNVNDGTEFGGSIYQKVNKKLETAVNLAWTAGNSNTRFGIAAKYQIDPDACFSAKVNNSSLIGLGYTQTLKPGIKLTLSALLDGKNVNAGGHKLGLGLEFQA

Key:
Assay in all cases: co-IP
[1] = target: HA-PB1-F2-GFP (influenza virus A/PuertoRico/8/34) (UniProt P0C0U1)
[2] = target: PB1-F2 (transfected in 293T cells, coimmunoprecipitation of Figure 5B) (influenza virus A/PuertoRico/8/34) (UniProt P0C0U1)
[3] = target: HA-PB1-F2-GFP (influenza virus A/PuertoRico/8/34) (UniProt P0C0U1); remark: listed apart in the source

## Flag-tagged VDAC1 (from UniProt P21796 1-283)
[1]
  binding: binds

B1: HA-tagged ANT3 (protein, UniProt P12236 1-298)
chain: MTEQAISFAKDFLAGGIAAAISKTAVAPIERVKLLLQVQHASKQIAADKQYKGIVDCIVRIPKEQGVLSFWRGNLANVIRYFPTQALNFAFKDKYKQIFLGGVDKHTQFWRYFAGNLASGGAAGATSLCFVYPLDFARTRLAADVGKSGTEREFRGLGDCLVKITKSDGIRGLYQGFSVSVQGIIIYRAAYFGVYDTAKGMLPDPKNTHIVVSWMIAQTVTAVAGVVSYPFDTVRRRMMMQSGRKGADIMYTGTVDCWRKIFRDEGGKAFFKGAWSNVLRGMGGAFVLVLYDELKKVI
[2]
  binding: binds

B2: Flag-tagged ANT3 (protein, UniProt P12236 1-298)
chain: MTEQAISFAKDFLAGGIAAAISKTAVAPIERVKLLLQVQHASKQIAADKQYKGIVDCIVRIPKEQGVLSFWRGNLANVIRYFPTQALNFAFKDKYKQIFLGGVDKHTQFWRYFAGNLASGGAAGATSLCFVYPLDFARTRLAADVGKSGTEREFRGLGDCLVKITKSDGIRGLYQGFSVSVQGIIIYRAAYFGVYDTAKGMLPDPKNTHIVVSWMIAQTVTAVAGVVSYPFDTVRRRMMMQSGRKGADIMYTGTVDCWRKIFRDEGGKAFFKGAWSNVLRGMGGAFVLVLYDELKKVI
[3]
  binding: binds
